Experimental data as given in patent US7420029B2, “Tissue-specific transporter inhibitor” (Japan Science and Technology Agency, priority 2001, dated 2008).

Target: T1, PEPT 1 (Rattus norvegicus, UniProt P51574)
T1 sequence (P51574 1-710): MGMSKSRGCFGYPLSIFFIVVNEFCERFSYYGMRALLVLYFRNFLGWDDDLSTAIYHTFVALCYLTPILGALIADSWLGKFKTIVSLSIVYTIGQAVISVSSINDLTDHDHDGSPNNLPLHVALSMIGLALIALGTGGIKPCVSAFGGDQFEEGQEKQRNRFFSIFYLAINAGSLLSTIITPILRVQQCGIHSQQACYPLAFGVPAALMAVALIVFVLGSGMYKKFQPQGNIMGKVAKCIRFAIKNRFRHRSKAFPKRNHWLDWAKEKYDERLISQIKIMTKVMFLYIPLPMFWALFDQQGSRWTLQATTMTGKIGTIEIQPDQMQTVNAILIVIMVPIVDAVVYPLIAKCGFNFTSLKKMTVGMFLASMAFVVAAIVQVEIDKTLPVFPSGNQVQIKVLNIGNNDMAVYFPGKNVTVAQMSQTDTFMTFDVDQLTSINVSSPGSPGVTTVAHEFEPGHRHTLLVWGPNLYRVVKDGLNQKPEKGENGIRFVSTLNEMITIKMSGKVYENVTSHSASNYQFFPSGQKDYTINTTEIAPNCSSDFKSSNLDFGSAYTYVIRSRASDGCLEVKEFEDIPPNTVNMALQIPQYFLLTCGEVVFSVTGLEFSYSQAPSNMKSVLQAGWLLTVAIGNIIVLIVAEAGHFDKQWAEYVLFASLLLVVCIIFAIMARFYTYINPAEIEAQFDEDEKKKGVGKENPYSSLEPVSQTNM
Details: male, Sprague-Dawley, in vivo, po, 5 mg/kg

## CC1=C(C(=O)O)N2C(=O)C(NC(=O)C(N)c3ccccc3)C2SC1 (stereo not shown) [Cephalexin, cephalexin]
  ke (elimination rate constant) of CDX: 0.68 ± 0.19 h⁻¹
